PubChem BioAssay AID1259308 – NCATS, 2017
This is an unselected part of about 59,000 deposited reagents. About 1,510 of them (2.6%) were called active. 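Calls use total luciferase alone and ignore viability, so some active siRNAs may act by altering cell number.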 Entries without a mark were called inactive. The numbers tell different reagents against one gene apart. Further read-outs or replicates are left out here.

Aim: 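Knock-downs that increase output of a recombinant reporter protein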 (primary screen)
Cells: human HEK293 embryonic kidney cells stably expressing firefly luciferase (HEK-CMV-Luc2-Hygro)
Knock-down reagent: single siRNA against human genes, 0.8 pmol siRNA per well
Duration: 72 h
Detection: 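Luciferase light (ONE-Glo) measured on one replicate plate set and viability (CellTiter-Glo) on the other, scaled to a negative control siRNA, with robust z-scores and luciferase per cell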
Scale: total luciferase, z-score and total luciferase, % of control: higher = more reporter protein produced; luciferase per cell, z-score: higher = more reporter output per viable cell
Call rule: 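Active when the median/MAD z-score for overall luciferase is greater than 3; a gene was taken forward for validation with new siRNAs if at least two of its three siRNAs passed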
Calls: active = raised luciferase; inactive = no rise

gene symbol	reagent	total luciferase, z-score	total luciferase, % of control	luciferase per cell, z-score
JMJD7-PLA2G4B (JMJD7-PLA2G4B readthrough)	1	5.7 (active)	195	4.97
JMJD7-PLA2G4B (JMJD7-PLA2G4B readthrough)	2	-0.594	70.1	-0.984
JMJD7-PLA2G4B (JMJD7-PLA2G4B readthrough)	3	1.04	103	1.42
OBSCN	1	-1.02	61.7	-1.48
OBSCN	2	-0.32	75.5	0.0186
OBSCN	3	-0.101	79.9	0.512
OBSCN	4	1.51	112	1.95
OBSCN	5	0.719	96.2	-0.067
OBSCN	6	-0.743	67.1	-0.555
TTC9 (tetratricopeptide repeat domain 9)	1	5.23 (active)	186	4.35
TTC9 (tetratricopeptide repeat domain 9)	2	-0.296	76	-0.411
TTC9 (tetratricopeptide repeat domain 9)	3	-1.71	47.8	-1.01
SOX2 (SRY-box transcription factor 2)	1	0.0511	82.9	-0.323
SOX2 (SRY-box transcription factor 2)	2	0.573	93.3	-0.206
SOX2 (SRY-box transcription factor 2)	3	1.44	111	0.783
MT1B (metallothionein 1B)	1	0.0276	82.4	0.224
MT1B (metallothionein 1B)	2	0.59	93.6	0.244
MT1B (metallothionein 1B)	3	1.89	120	1.11
OOSP2 (oocyte secreted protein 2)	1	-0.33	75.3	-0.296
OOSP2 (oocyte secreted protein 2)	2	0.27	87.3	0.344
OOSP2 (oocyte secreted protein 2)	3	0.591	93.6	-0.121
DNAI1 (dynein axonemal intermediate chain 1)	1	-2.12	39.8	-2.84
DNAI1 (dynein axonemal intermediate chain 1)	2	-0.585	70.3	-0.00435
DNAI1 (dynein axonemal intermediate chain 1)	3	1.48	111	2.13
PRPF40B (pre-mRNA processing factor 40B)	1	-1.08	60.4	-1.38
PRPF40B (pre-mRNA processing factor 40B)	2	-0.477	72.4	-0.15
PRPF40B (pre-mRNA processing factor 40B)	3	1.77	117	0.504
NUP214 (nucleoporin 214)	1	-0.466	72.6	-0.854
NUP214 (nucleoporin 214)	2	-0.355	74.8	0.227
NUP214 (nucleoporin 214)	3	1.09	104	0.821
ZNF10 (zinc finger protein 10)	1	-1.09	60.1	-1.12
ZNF10 (zinc finger protein 10)	2	-0.722	67.5	-0.884
ZNF10 (zinc finger protein 10)	3	-0.0766	80.4	-0.392

Next part, starting with the last 2 of the part before.
gene symbol	reagent	total luciferase, z-score	total luciferase, % of control	luciferase per cell, z-score
ZNF10 (zinc finger protein 10)	2	-0.722	67.5	-0.884
ZNF10 (zinc finger protein 10)	3	-0.0766	80.4	-0.392
LRRC43 (leucine rich repeat containing 43)	1	-1.29	56.3	-1.06
LRRC43 (leucine rich repeat containing 43)	2	-0.378	74.4	-0.479
LRRC43 (leucine rich repeat containing 43)	3	-0.201	77.9	1.72
KIAA2013	1	-1.83	45.6	0.256
KIAA2013	2	0.618	94.2	0.937
KIAA2013	3	-3.38	14.6	-2.51
ARL8A (ARF like GTPase 8A)	1	-1.05	61	-1.44
ARL8A (ARF like GTPase 8A)	2	0.475	91.3	0.591
ARL8A (ARF like GTPase 8A)	3	-1.14	59.2	-1.07
SLAMF1 (signaling lymphocytic activation molecule family member 1)	1	2.91	140	1.58
SLAMF1 (signaling lymphocytic activation molecule family member 1)	2	0.638	94.6	0.652
SLAMF1 (signaling lymphocytic activation molecule family member 1)	3	-1.82	45.7	-1.14
FEM1B (fem-1 homolog B)	1	0.168	85.2	-0.104
FEM1B (fem-1 homolog B)	2	0.435	90.5	0.109
FEM1B (fem-1 homolog B)	3	-0.342	75.1	-0.493
EFHD2 (EF-hand domain family member D2)	1	-0.182	78.3	-0.178
EFHD2 (EF-hand domain family member D2)	2	-0.256	76.8	-0.638
EFHD2 (EF-hand domain family member D2)	3	0.749	96.8	0.769
ZNF12 (zinc finger protein 12)	1	-0.119	79.5	-0.578
ZNF12 (zinc finger protein 12)	2	0.135	84.6	-0.08
ZNF12 (zinc finger protein 12)	3	0.363	89.1	0.315
MRPL9 (mitochondrial ribosomal protein L9)	1	-0.465	72.6	-0.157
MRPL9 (mitochondrial ribosomal protein L9)	2	-0.103	79.8	-1.19
MRPL9 (mitochondrial ribosomal protein L9)	3	0.369	89.2	0.0875
